Experimental data published in US20130052213A1, “NOVEL IMMUNOMODULATORY PEPTIDE” (Novozymes A/S, priority 2011, published 2013).
For at least one compound, name, drawing or mass did not settle the structure.

System: IL-10
Assay: IL-10 production from LPS-stimulated PBMC (cytometric bead array)
Type: cell-based
Conditions: human PBMCs stimulated with LPS 0.6 or 20 ng/ml; hBD2 100, 10 or 1 pg/ml; Dexamethason 3.5 ng/ml; Infliximab 1 μg/ml; 24 hours
Protocol: Peripheral blood was drawn from healthy volunteers (with approval from the relevant ethical committee in Denmark). Heparinized blood was diluted 1/1 v/v with RPMI and were subjected to Ficoll density centrifugation within 2 h of drawing. Plasma was collected from the top from individual donors and was kept on ice until it was used at 2% in the culture medium (autologous culture medium). Isolated PBMC were resuspended in autologous culture medium and seeded in 96-well culture plates with 255.000 cells per well in a total of 200 μl. […] Viability was measured by Alamar Blue (Biosource, DALL 1100) to be sure that anti-inflammatory effects were not due to toxicity.
TNF and IL-10 production in supernatants was measured by flow cytometry with a human inflammation cytometric bead array (CBA) according to manufacturer's instructions (BDBioSciences) on a FACSarray flow cytometer (BDBiosciences).
All experiments were performed at least twice on several donors, with representative results shown. The data presented are expressed as mean plus/minus standard deviation (SD). Statistical significance was determined by 2-way ANOVA with the variables being treatment (hBD2, dexamethazone, etc.) and stimulation (LPS) followed by Bonferroni post-test as reported in the table legends. […]

For `C[C@@H]1C[C@H]2[C@@H]3CCC4=CC(=O)C=C[C@]4(C)[C@@]3(F)[C@@H](O)C[C@]2(C)[C@@]1(O)C(=O)CO` [Dexamethasone], which “IL-10 production (FIG. 1)” value is on record?
Its value is “down-regulate IL-10”.
